Reference: publication PMC8594108, “In vitro growth inhibitory activity of Medicines for Malaria Venture pathogen box compounds against Leishmania aethiopica” (BMC Pharmacology & Toxicology, 2021)
Read-outs that look alike come from different tables or passages of the source.

Legend:
Type in all cases: cell-based
[1] = THP-1 cell cytotoxicity assay (resazurin); conditions: human, THP-1 cells
Method: Approximately 2 × 10^5 THP-1 cell suspension were added to 96-well microplate containing serially diluted 50 μL test compounds. Microplates were then incubated for 68 h at 37 °C in a 5% CO2 air mixture. Cell viability was determined with the resazurin- based fluorescence assay measured after a total incubation time of 72 h. The estimated median cell cytotoxicity (CC50) was calculated for each concentration using the formula: Cell viability%=Fluorescence in duplicate drug wells-Fluorescence blank wells/Fluorescence in control wells−Fluorescence blank wells∗100 The selectivity index of compounds was calculated from the ratio of the CC50 value determined in THP1 cells to the IC50 value determined from the dose-response curves in promastigote and amastigote assay using the following formula. Selectivity indexSI=CC50THP1cells/IC50promastigotes or amstigotes

[2] = tested on: L. aethiopica promastigotes; assay: Primary antipromastigote assay (resazurin based); conditions: Leishmania aethiopica, 72 h
Method: Test compounds were diluted in 96-well microculture plate containing 100 μL complete M199 medium. […] The Parasite density was kept constant at 1 × 10^5 per well. After 68 h of incubation, 10 μL of fluorochrome resazurin solution (Sigma-Aldrich, Co., St. […] The percentage of inhibition (%) was calculated for each concentration using the following formula: Inhibition%=100−Fluorescence in duplicate drug wells-Fluorescence in blank wells/Fluorescence control wells−Fluorescence in blank wells∗100

Haemolysis test = conditions: sheep, sheep red blood cells (2% blood suspension), 1.56–25 μM, 37 °C, read-out: Cytotoxicity, CC50, Sheep RBC
Method: The mixture was then centrifuged at 1000 g for 10 min. 75 μL of the resulting supernatant were transferred to 96-well plates and the absorbance readings obtained at 540 nm using Victor3 Multilabel Counter (PerkinElmer, Waltham, USA).

SMILES: CN1CCCC1CCO[C@](C)(c1ccccc1)c1ccc(Cl)cc1 (some centres unmarked) [MMV637229]
- CC50 at 72 h [1]: > 25 µM
- inhibition at 1 µM ([2]; hit map sheet with colour categories, negative values shown as 0.00, read-out: Percentage of inhibition against Leishmania aethiopica promastigotes): 83.6%
- inhibition at 1 µM ([2]; hit map sheet without colour categories, negative values kept, read-out: Percentage of inhibition against Leishmania aethiopica promastigotes): 83.6%
- IC50 ([2]; dose titration 0.03 to 1 μM, average of two independent experiments in triplicate, read-out: IC50 (95% CI) against Leishmania aethiopica promastigotes): 0.483 µM
- CC50 at 2 h (Haemolysis test): > 25 µM
